Screening data, single-dose tests

By UniProt entry, the sequences of proteins in these tests, tags left out. Residues count along the entry.
UniProt Q4DA54, 1-478: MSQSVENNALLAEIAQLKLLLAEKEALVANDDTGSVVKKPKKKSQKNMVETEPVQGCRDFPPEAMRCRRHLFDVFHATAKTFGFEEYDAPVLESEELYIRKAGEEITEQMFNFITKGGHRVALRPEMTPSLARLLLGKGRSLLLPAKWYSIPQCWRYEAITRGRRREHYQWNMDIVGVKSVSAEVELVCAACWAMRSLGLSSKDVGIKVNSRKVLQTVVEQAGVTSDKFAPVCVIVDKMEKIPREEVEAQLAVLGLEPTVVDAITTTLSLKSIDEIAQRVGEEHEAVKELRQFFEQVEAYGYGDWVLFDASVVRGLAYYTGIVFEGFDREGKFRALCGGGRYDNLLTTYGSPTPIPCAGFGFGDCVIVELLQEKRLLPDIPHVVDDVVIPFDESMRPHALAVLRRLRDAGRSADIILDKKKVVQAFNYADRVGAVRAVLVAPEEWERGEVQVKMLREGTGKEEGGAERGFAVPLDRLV

Measurements from “University of Dundee, Small-Polar-MMV Screening Library” (2021), ChEMBL document CHEMBL3988442.

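Enzyme assay of histidyl-tRNA synthetase; the read-out is not stated. Target: Histidine-tRNA ligase, Trypanosoma cruzi CL Brener (UniProt Q4DA54). Compounds at 30 µM. Direction is inferred from retests: higher values go with stronger inhibition. Of about 69,000 compounds tested this way, about 31 (0.045%) reached 50% or more in at least one test.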

Each number is a percent effect as filed.
The record does not define 0% and 100%; most values in the screen are far below 50% and negative numbers occur (in some assays of this library far below -100).
Compounds were drawn at random from those tested, without regard to their results.

O=C(NCC1CC1)c1c2c(N3CCCC3)ncnc2n2ccccc12 gave 7.438%.
Cc1cnn(CCNCC(=O)N2CCN(c3ccccn3)CC2)c1 gave 4.762%.
CCC1CN(Cc2nnc(C(C)C)o2)CCC(=O)N1Cc1ccccc1 (stereo unspecified) gave 9.184%.
CCOCCC(=O)NCC1CCCO1 (stereo unspecified) gave 1.19%.
CC1(C)OCC(CNC(=O)c2cnn(-c3ccc(Cl)cc3)c2N)O1 (stereo unspecified) gave 2.151%.
Cc1cc(SCC(N)=O)nc(-c2cccc(F)c2)n1 gave 2.062%.
CCc1noc(C(C)N2CCC(N3CCCCC3)CC2)n1 (stereo unspecified) gave 4.52%.
c1ccc(OCCCNCc2cccs2)nc1 gave 3.509%.
CC1(c2nccs2)CCN(C(=O)CCN2CCOCC2)CC1 gave 2.26%.
O=C(O)C(c1ccc(Cl)c(F)c1)N1CCN(Cc2ccccn2)CC1 (stereo unspecified) gave 1.02%.
O=C(CCCOc1ccc(F)cc1F)N1CCCC1Cn1cccn1 (stereo unspecified) gave 0%.
COCC(=O)N1CCN(C(C)C(=O)NC(C)C)CC1 (stereo unspecified) gave 0.4926%.
CS(=O)(=O)c1cncnc1C1CCCNC1 (stereo unspecified) gave 1.13%.
COc1ccccc1C1CCN(C(=O)CN2C(=O)OC(C)(C)C2=O)CC1 gave 5.025%.
Cn1ncc(NC(=O)c2noc3c2CCCC3)c1C(N)=O gave 2.312%.
CCOCC1CN(Cc2ccco2)Cc2nccn2C1 (stereo unspecified) gave 8.04%.
COCCOCCSc1nnc(Cc2ccccc2F)o1 gave 5.319%.
CCCC1(CO)CCCN(Cc2ncccn2)C1 (stereo unspecified) gave 7.895%.
Cc1cccc(C(=O)NCc2ccc(S(N)(=O)=O)cc2)n1 gave 1.527%.
CCc1n[nH]c(C2CN(CCc3cccs3)CCO2)n1 (stereo unspecified) gave -1.128%.
CCC(NC(=O)c1coc(COc2cccc(F)c2F)n1)C(=O)NC (stereo unspecified) gave 5.051%.
CCN(CCc1nc2cc(C)ccc2[nH]1)C(=O)[C@@H](N)Cc1c[nH]cn1 gave 1.622%.
O=C(c1ccc(Br)cc1F)N1CCc2ccncc21 gave 8.287%.
Cn1nccc1-c1cnc2n1CCC21CCN(C(=O)C2(C)CC2)CC1 gave 7.538%.
CN(C(=O)Cc1ccc2c(c1)OCCO2)C1CCCC1 gave 4.348%.
CCN(CC)c1ccc(CNC(=O)c2cccc(C)n2)cn1 gave 1.724%.
O=C(NC1CC1)c1ccccc1NCc1cn2cccnc2n1 gave 11.92%.
OC(COCc1ccccc1Cl)CN1CC(n2cccn2)C1 (stereo unspecified) gave -2.662%.
Cc1cc(CN(C)C(=O)C2CC(c3cccc(F)c3)=NO2)no1 (stereo unspecified) gave 9.052%.
CCCOC(=O)NCCC1CN(c2cnn(C)c(=O)c2)CCO1 (stereo unspecified) gave 7.071%.
CS(=O)(=O)N1CCC2(CC1)CC(CC(=O)N1CCCC1)c1ccccc12 (stereo unspecified) gave 2.732%.
CCN1CC2(CCC1=O)CCN(Cc1cccc(OC(F)F)c1)CC2 gave 0.8696%.
CCOc1ccc(CN2CCN(C(=O)c3ccc(C)n3C)CC2)cc1 gave 3.396%.
O=C(N1CCCCC1)N1CCN(c2ccc(Cl)nn2)C(=O)C1 gave 11.24%.
CS(=O)(=O)N1CCC2(CC1)CN(CC1CC1)CC21CCNC1=O (stereo unspecified) gave 8.738%.
COc1ccc2c(c1)C(=O)NC1(CC2)CCN(Cc2cccnc2)C1 (stereo unspecified) gave 9.091%.
CNc1ncc(CN(C)C(=O)CCc2[nH]nc3c2CCCC3)cn1 gave 11.44%.
CC(C)NC(=O)N1CCCn2cnc(CN3CCCC3=O)c2C1 gave -0.9346%.
Cc1ccc(C(=O)N2Cc3c(CN4CCCCC4)nn(C)c3C2)o1 gave 0.8%.
Cn1cnc(S(=O)(=O)NCCCN2CCCCCC2=O)c1Cl gave 5.233%.
COc1ccccc1OC1CN(C(=O)c2ccccc2C(C)=O)C1 gave 7.317%.
CC1(c2ccccc2)CCC(=O)N(CCCN2CCOCC2)C1 (stereo unspecified) gave 8.163%.
CC(=O)N1CCc2[nH]cnc2C12CCN(C(=O)Cc1cccs1)CC2 gave -7.229%.
c1ccc2c(c1)COC1(CCCCC1)N2 gave 12%.
N#Cc1ccc(CN(CC(N)=O)Cc2cccc(F)c2)cc1 gave 4.972%.
CN(Cc1cn2c(n1)CN(C(=O)c1cccnc1)CC2)Cc1ccco1 gave 4.301%.
CN(CC(=O)N(C)C)Cc1ccc(C#N)cc1F gave 4.813%.
CCCC1(CNCc2ncc[nH]2)CCC1 gave -4.202%.

For reference, 6 entries once more:

- Cc1cnn(CCNCC(=O)N2CCN(c3ccccn3)CC2)c1 : 4.762%
- Cn1ncc(NC(=O)c2noc3c2CCCC3)c1C(N)=O : 2.312%
- CN(C(=O)Cc1ccc2c(c1)OCCO2)C1CCCC1 : 4.348%
- O=C(c1ccc(Br)cc1F)N1CCc2ccncc21 : 8.287%
- Cn1nccc1-c1cnc2n1CCC21CCN(C(=O)C2(C)CC2)CC1 : 7.538%
- COc1ccccc1OC1CN(C(=O)c2ccccc2C(C)=O)C1 : 7.317%